Results deposited as PubChem BioAssay AID1259405 (NCATS, 2018)

Purpose: 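Silenced genes that increase secreted GFP made by CHO cells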 (primary screen)
Cell system: Chinese hamster CHO-K1 ovary cells with stable secreted eGFP expression
Knock-down reagent: single siRNA against mouse genes, 0.8 pmol siRNA per well (2 µl of 400 nM stock)
Timing: 3 days
Measured: 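Per-well intracellular GFP measured by laser scanning cytometry, plus viability from ATP luminescence, each relative to plate median of non-targeting control wells, in %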
Scale: GFP, % of control: higher = more GFP per well, higher productivity; viability (ATP), % of control: higher = more viable cells (more ATP)
Call rule: 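Called active when intracellular GFP, relative to negative control, is at or above 120%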
The whole screen tested about 50,000 reagents; this is a random part of them. In the full data, about 4,000 (8%) are marked active. 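Mouse siRNA library applied to hamster cells; one well for each siRNA.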 A number with no mark means an inactive call. Reagents against one gene are numbered here.

gene symbol	reagent	GFP, % of control	viability (ATP), % of control
Dedd2	1	95	121
Dedd2	2	103	79.6
Dedd2	3	73.6	83.3
Cat	1	109	114
Cat	2	39	88
Cat	3	67.8	71.7
Bcl2l12	1	54.7	88.3
Bcl2l12	2	70.9	89.2
Bcl2l12	3	89.7	87.3
Pex6	1	81.1	87.8
Pex6	2	115	91.6
Akt2	1	68.3	55.2
Clcnkb	1	87.7	91.4
Clcnkb	2	62.4	61.2
Clcnkb	3	117	70.8
Hfe	1	134 (active)	121
Hfe	2	65	62.1
Hfe	3	84.1	63.8
Tipin	1	89.8	83
Tipin	2	65.1	61.7
Tipin	3	95.9	92.2
Bak1	1	88.9	81.3
Bak1	2	80.4	53.2
Imp3	1	41.1	78.1
Imp3	2	123 (active)	105
Imp3	3	70	62.5
Unkl	1	105	105
Unkl	2	66.7	83.9
Unkl	3	81.2	87
Man2b1	1	84.3	137
Man2b1	2	63.3	89.7
Man2b1	3	65.2	81.6
Sntn	1	162 (active)	99.1
Sntn	2	76.9	70.5
Sntn	3	101	89.8
Srprb	1	45.5	53.2
Srprb	2	75.2	73.3
Srprb	3	134 (active)	143
Dusp15	1	74.8	86
Dusp15	2	107	113
Dusp15	3	106	63.2
Gpr141	1	168 (active)	58.5
Gpr141	2	75.2	75.5
Gpr141	3	88.5	85.2
Lcn2	1	100	82.3
Lcn2	2	69.6	55.3
Lcn2	3	70.7	88.7
Or2y1b	1	74	71.5
Or2y1b	2	107	85.3
Or2y1b	3	85.4	60.3
Nkx3-1	1	67	69
Nkx3-1	2	68.7	68
Nkx3-1	3	63	60.2
Pitx1	1	92.7	88.4
Pitx1	2	72.1	61.3
Zc3hav1l	1	45.3	38.1
Zc3hav1l	2	61.9	56.5
Zc3hav1l	3	88.6	94.6
Neurod2	1	83.9	96
Neurod2	2	74.9	70.1
Neurod2	3	115	126
Hsd17b11	1	61.5	43.6
Hsd17b11	2	66.2	53.4
Hsd17b11	3	89.9	69.8
Mpv17l2	1	65.5	49.8
Mpv17l2	2	70.8	72
Mpv17l2	3	28.6	24.7
Defb44-ps	1	43.1	72.8
Defb44-ps	2	71.3	60.4
Defb44-ps	3	88.9	89.7
Sdhaf2	1	96.4	95.4
Sdhaf2	2	51.9	39.7
Sdhaf2	3	102	63.6
Kctd6	1	60.3	51.9
Kctd6	2	132 (active)	64.9
Kctd6	3	108	90.8
Alas2	1	69.5	73.6
Alas2	2	67.2	169
Alas2	3	112	108
Svil	1	66.3	62.2
Svil	2	45.7	55
Svil	3	69.5	77.1
Eif3l	1	80.3	88.5
Eif3l	2	81.1	58.1
Eif3l	3	168 (active)	78.9

9 entries from above in another layout.
gene symbol,reagent,"GFP, % of control","viability (ATP), % of control"
Imp3,2,123 (active),105
Imp3,3,70,62.5
Unkl,1,105,105
Unkl,2,66.7,83.9
Unkl,3,81.2,87
Man2b1,1,84.3,137
Man2b1,2,63.3,89.7
Man2b1,3,65.2,81.6
Sntn,1,162 (active),99.1
